Experimental data published in PubChem BioAssay AID504444 (National Center for Advancing Translational Sciences (NCATS), 2011).
About 7,500 (2.1%) of roughly 360,000 compounds were called active. Inconclusive results, whose numbers are uncertain, are shown with a selection of clear calls. The call rests on the fitted dose curve; in most records, active means well fitted inhibition curve with a large enough effect; inconclusive means small, poorly fitted or top-dose-only effect, or effect the other way; inactive means flat fitted curve, though single readings scatter. A potency beside an inconclusive call is a rough fit, not a confirmed value.

assay: Nrf2 qHTS screen for inhibitors; details: A549 ARE-Fluc reporter, luciferase luminescence, 18-24 h; activity change, negative = inhibition: at 46 µM (top of the series); further: nearly all actives have a fitted effect of over 60% in size
Outline: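 A549 ARE_Fluc cells, 5000/well, 5% FBS OPTI-MEM; compounds in dose-response, 18-24 h at 37 °C/5% CO2; CellTiter-Fluor viability read (Ex 405/Em 525), then BugLite luciferase luminescence = Nrf2 activity.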
On the % scale 0 is the no-effect control and ±100 the full control effect; potency means the concentration at half of the fitted maximal effect.

Row | SMILES | Potency | activity change, negative = inhibition
1 | CCN(C(=O)[C@@H]1CCCN1C(=O)c1cccs1)c1nc2cc(Cl)ccc2s1 | inconclusive: 0.82 µM [activator, partial curve, poor fit] | 
2 | COCC1CCN(C(=O)c2cc(COc3cccc4cnccc34)on2)CC1 | inconclusive: 14.6 µM [falling, single point] | 
3 | O=C1CCCCCN1C(=O)c1ccccc1 |  | inactive: -3.46%
4 | COc1ccc(NC(=O)c2ccc3ncsc3c2)cc1 | inconclusive: 7.31 µM [activator, partial curve] | 
5 | CCc1ccc(NC(=O)CCc2c(C)nn(-c3ccc(N4CCOCC4)nn3)c2C)cc1 | inconclusive: 14.6 µM [activator, partial curve, poor fit] | 
6 | O=C(c1ccc(N2CCN(C(=O)c3cccc(F)c3)CC2)cc1)c1cccc(F)c1 | inconclusive: 29.1 µM [falling, single point] | 
7 | CCCOc1ccc(N2C(=O)CC(SCCN)C2=O)cc1 (stereo not given) | inconclusive: 1.64 µM [activator, partial curve] | 
8 | COc1ccccc1NC(=O)CN(Cc1ccco1)C(=O)c1cncc(Br)c1 |  | inactive: -13.8%
9 | O=C(NC(=S)N1CCc2ccccc21)c1ccco1 | inconclusive: 23.1 µM [activator, single point] | 
10 | O=C1OC(Nc2ccc(F)c([N+](=O)[O-])c2)c2ccccc21 (stereo not given) |  | inactive: -14.3%
11 | CCc1ccc(NC(=S)N(Cc2cccc(Br)c2)CC2CCC(C(=O)O)CC2)cc1 (stereo not given) | inconclusive: 29.1 µM [falling, single point] | 
12 | CC(=Nc1ccc(C)cc1C)c1sc2ccccc2c1O | inconclusive: 10.3 µM [activator, single point] | 
13 | Fc1ccc(Nc2nc3ccccc3n3cnnc23)c(F)c1 |  | inactive: 3.47%
14 | COCCNC(=O)c1snc2ccc(Cl)cc12 | inconclusive: 1.84 µM [falling, full curve, poor fit] | 
15 | CCOC(=O)CCN(C(=O)Nc1ccccc1)C1CCCCC1 | inconclusive: 29.1 µM [activator, single point] | 
16 | C=CCNC(=S)NCC=C |  | inactive: 7.53%
17 | O=c1c2c3c(sc2ncn1/N=C/c1cccnc1)CCCC3 | inconclusive: 3.26 µM [activator, partial curve, poor fit] | 
18 | CCOc1ccc(CN(C)C(=O)c2ccc3c(c2)NC(=O)C(C)S3)cc1OC (stereo not given) | active: 16.4 µM | 

Row | SMILES | Potency | activity change, negative = inhibition
19 | O=C(COC(=O)C1(c2ccc(F)cc2)CCCC1)Nc1ncc(C(F)(F)F)cc1Cl | inconclusive: 23.1 µM [falling, partial curve] | 
20 | Cc1ccc(S(=O)(=O)Nc2ccc3nc(-c4cccc(Cl)c4)oc3c2)cc1 | inconclusive: 18.4 µM [falling, partial curve] | 
21 | O=C(Nc1nc2ccccc2s1)c1cc(-c2ccco2)nc2ccccc12 |  | inactive: -17.4%
22 | COc1ccc(Nc2nc(N)nc(CSc3nnc(N)s3)n2)cc1 | inconclusive: 8.2 µM [activator, partial curve] | 
23 | CC(C)c1ccccc1-n1c(SCC(=O)N2CCN(c3ccccc3)CC2)nnc1-c1cccnc1 | inconclusive: 29.1 µM [activator, single point] | 
24 | Cc1ccccc1-n1ccnc1SCC(=O)O |  | inactive: 10.1%
25 | COc1ccc(Cl)cc1NC(=O)c1cnc2sc(N3CCOCC3)nn2c1=O |  | inactive: 16.1%
26 | CC(NC(=O)c1ccco1)c1nc(-c2ccc(Cl)cc2)no1 (stereo not given) | inconclusive: 20.6 µM [falling, partial curve, poor fit] | 
27 | COC(=O)C(C)N1C(=O)S/C(=C\c2cc(C)n(-c3ccccn3)c2C)C1=O (stereo not given) | inconclusive: 0.82 µM [activator, full curve, poor fit] | 
28 | CCC(Sc1nc2sc(C(=O)OC)c(C)c2c(=O)n1N)C(=O)N(CC)CC (stereo not given) |  | inactive: -13.3%
29 | Cc1cc(C)cc(NC(=O)C(=O)NCC2CCCO2)c1 (stereo not given) | inconclusive: 29.1 µM [activator, single point] | 
30 | Nn1c(SCc2ccccc2F)nnc1-c1cccnc1 | inconclusive: 2.91 µM [activator, partial curve] | 
31 | CN(C(=O)c1cnc(N2CCN(c3ncccn3)CC2)c2ccccc12)c1ccc(Cl)cc1 | inconclusive: 29.1 µM [falling, single point] | 
32 | C=C1CCC[C@]2(C)C[C@H]3OC(=O)C(CN4CC(C)OC(C)C4)[C@H]3C[C@@H]12 (stereo not given in full) | inconclusive: 0.231 µM [falling, full curve, poor fit] | 
33 | CN1CCN(CCNC(=O)c2cnn(-c3ccc(Cl)cc3)c2C2CCN(C(=O)OC(C)(C)C)CC2)CC1 |  | inactive: 2.93%
34 | COc1ccc2cc(CN(Cc3ccco3)C(=S)NCC3CCCO3)c(=O)[nH]c2c1 (stereo not given) |  | inactive: -18.5%
35 | O=C(NC1CCN(C(=O)N2c3ccccc3Sc3ccccc32)CC1)c1ccccc1Cl | inconclusive: 18.4 µM [falling, single point] | 

Taken from above.
For activity change, negative = inhibition, Fc1ccc(Nc2nc3ccccc3n3cnnc23)c(F)c1 is listed with inactive: 3.47%
For activity change, negative = inhibition, C=CCNC(=S)NCC=C is listed with inactive: 7.53%
